Among the data in article PMC5658190 are binding values, retold here.

Holding throughout (assay): split reporter; BiFC with split EYFP (1-174 / 175-end) in N. benthamiana epidermal cells, Agrobacterium EHA105 infiltration, confocal microscopy after 3 days
Experiment [1] concerns the target T1, Arabidopsis zinc finger protein SERRATE (AtSE), BiFC fusion (Arabidopsis) (UniProt Q9ZVD0).
T1 sequence: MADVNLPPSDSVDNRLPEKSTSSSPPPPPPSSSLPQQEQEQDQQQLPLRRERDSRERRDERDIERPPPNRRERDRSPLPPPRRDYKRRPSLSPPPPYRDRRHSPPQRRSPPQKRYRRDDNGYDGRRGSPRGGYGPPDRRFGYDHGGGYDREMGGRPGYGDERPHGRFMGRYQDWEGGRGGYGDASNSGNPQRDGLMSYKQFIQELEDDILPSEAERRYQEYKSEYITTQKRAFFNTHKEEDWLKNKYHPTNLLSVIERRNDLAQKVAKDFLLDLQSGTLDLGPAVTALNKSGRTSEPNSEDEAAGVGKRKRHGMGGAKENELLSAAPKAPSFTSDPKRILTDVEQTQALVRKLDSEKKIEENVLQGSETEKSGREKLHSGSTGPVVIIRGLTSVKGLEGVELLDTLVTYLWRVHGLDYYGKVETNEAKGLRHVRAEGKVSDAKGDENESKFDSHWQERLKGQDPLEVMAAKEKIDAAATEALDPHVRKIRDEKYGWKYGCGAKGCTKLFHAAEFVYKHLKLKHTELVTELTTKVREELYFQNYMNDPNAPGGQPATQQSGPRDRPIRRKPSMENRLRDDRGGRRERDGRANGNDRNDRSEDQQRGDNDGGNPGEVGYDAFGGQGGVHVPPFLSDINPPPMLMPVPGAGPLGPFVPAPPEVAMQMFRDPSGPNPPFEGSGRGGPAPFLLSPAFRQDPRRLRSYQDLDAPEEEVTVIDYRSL

Experiment [2] concerns the target T2, Arabidopsis HYPONASTIC LEAVES1 (AtDRB1/AtHYL1), BiFC fusion (Arabidopsis) (UniProt O04492).
T2 sequence: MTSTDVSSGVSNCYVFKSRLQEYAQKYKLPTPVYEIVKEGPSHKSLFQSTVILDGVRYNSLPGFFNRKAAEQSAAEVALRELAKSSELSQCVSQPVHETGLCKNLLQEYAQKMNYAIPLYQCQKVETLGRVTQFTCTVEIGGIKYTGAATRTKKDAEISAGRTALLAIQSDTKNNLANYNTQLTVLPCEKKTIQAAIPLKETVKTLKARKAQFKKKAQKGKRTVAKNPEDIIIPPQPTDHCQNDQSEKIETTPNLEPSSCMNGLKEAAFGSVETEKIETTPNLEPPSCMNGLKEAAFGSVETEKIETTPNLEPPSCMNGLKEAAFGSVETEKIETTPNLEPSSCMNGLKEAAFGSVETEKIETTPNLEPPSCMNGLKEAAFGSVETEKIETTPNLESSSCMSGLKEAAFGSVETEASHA

For experiment [3], the target named is T3, Arabidopsis CAP BINDING PROTEIN 20 (AtCBP20), BiFC fusion (Arabidopsis) (UniProt Q9XFD1).
T3 sequence: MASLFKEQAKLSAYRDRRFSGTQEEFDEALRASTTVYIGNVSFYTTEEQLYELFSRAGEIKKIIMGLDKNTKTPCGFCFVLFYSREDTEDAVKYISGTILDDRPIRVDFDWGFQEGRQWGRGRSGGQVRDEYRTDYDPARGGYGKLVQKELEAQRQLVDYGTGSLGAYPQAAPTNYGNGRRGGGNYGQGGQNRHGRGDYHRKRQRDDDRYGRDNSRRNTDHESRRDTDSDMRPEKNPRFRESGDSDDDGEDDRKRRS

No constants are given. Whether binding was seen depends on the method and setting. In cells and extracts the contact can be indirect. For part of these data: Binding calls can cover weak binding; strength is not graded here. Sequences can lack the tags named with a protein.

For the substance “Rice stripe virus (RSV)-encoded nonstructural protein 3 (NS3), BiFC fusion”, the binding entry in experiment [1] is given as “binds”; in experiment [2], “binds”; in experiment [3] it was “no binding”.
